Data source: PubChem BioAssay AID1259254 (NCATS, 2017)
The whole screen tested about 59,000 reagents; below is a random part of them. About 1,550 of all reagents (2.6%) were called active. 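G2 share is only a proxy for re-replication; each gene was hit by three separate siRNAs, and active genes were retested.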 The numbers tell different reagents against one gene apart. Further read-outs or replicates are left out here. The record does not give: the amount of reagent.

- Purpose: 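Genome-wide screen for genes that prevent DNA re-replication in cancer cells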 (primary screen)
- System: human HCT116 colorectal cancer cells
- Reagents: single siRNA against human genes
- Duration: 3 days
- Measured: 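Imaged Hoechst DNA stain sorts each cell into a cycle phase by DNA amount; per plate, G2 fraction set to 0% for non-targeting and 100% for GMNN siRNA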
- Direction: G2 robust z-score and G2 cells, % of GMNN control: higher = more G2 cells, more excess DNA replication
- Active means: 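An siRNA counts as active if its G2 robust z-score lies at least 5 MADs above the screen median; here such calls match roughly 38% of GMNN control or more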

{"target gene": "SAP130 (Sin3A associated protein 130)", "reagent no.": 1, "G2 robust z-score": 0.935, "G2 cells, % of GMNN control": 9.55, "outcome": "inactive"}
{"target gene": "SAP130 (Sin3A associated protein 130)", "reagent no.": 2, "G2 robust z-score": 3.76, "G2 cells, % of GMNN control": 29.4, "outcome": "inactive"}
{"target gene": "SAP130 (Sin3A associated protein 130)", "reagent no.": 3, "G2 robust z-score": 8.38, "G2 cells, % of GMNN control": 62, "outcome": "active"}
{"target gene": "TRAPPC8 (trafficking protein particle complex subunit 8)", "reagent no.": 1, "G2 robust z-score": 3.15, "G2 cells, % of GMNN control": 25.2, "outcome": "inactive"}
{"target gene": "TRAPPC8 (trafficking protein particle complex subunit 8)", "reagent no.": 2, "G2 robust z-score": -0.6, "G2 cells, % of GMNN control": -1.26, "outcome": "inactive"}
{"target gene": "TRAPPC8 (trafficking protein particle complex subunit 8)", "reagent no.": 3, "G2 robust z-score": 0.298, "G2 cells, % of GMNN control": 5.06, "outcome": "inactive"}

Reagents above with an active call (1):
{"target gene": "SAP130 (Sin3A associated protein 130)", "reagent no.": 3, "G2 robust z-score": 8.38, "G2 cells, % of GMNN control": 62, "outcome": "active"}

The listing continues:
{"target gene": "HAUS2 (HAUS augmin like complex subunit 2)", "reagent no.": 1, "G2 robust z-score": -1.02, "G2 cells, % of GMNN control": -4.18, "outcome": "inactive"}
{"target gene": "HAUS2 (HAUS augmin like complex subunit 2)", "reagent no.": 2, "G2 robust z-score": 2.25, "G2 cells, % of GMNN control": 18.8, "outcome": "inactive"}
{"target gene": "HAUS2 (HAUS augmin like complex subunit 2)", "reagent no.": 3, "G2 robust z-score": -0.537, "G2 cells, % of GMNN control": -0.808, "outcome": "inactive"}
{"target gene": "PCNX3 (pecanex 3)", "reagent no.": 1, "G2 robust z-score": -0.859, "G2 cells, % of GMNN control": -3.07, "outcome": "inactive"}
{"target gene": "PCNX3 (pecanex 3)", "reagent no.": 2, "G2 robust z-score": 0.612, "G2 cells, % of GMNN control": 7.27, "outcome": "inactive"}
{"target gene": "PCNX3 (pecanex 3)", "reagent no.": 3, "G2 robust z-score": -0.507, "G2 cells, % of GMNN control": -0.598, "outcome": "inactive"}
{"target gene": "CSNK1G2 (casein kinase 1 gamma 2)", "reagent no.": 1, "G2 robust z-score": 0.195, "G2 cells, % of GMNN control": 4.34, "outcome": "inactive"}
{"target gene": "CSNK1G2 (casein kinase 1 gamma 2)", "reagent no.": 2, "G2 robust z-score": 0.429, "G2 cells, % of GMNN control": 5.98, "outcome": "inactive"}
{"target gene": "CSNK1G2 (casein kinase 1 gamma 2)", "reagent no.": 3, "G2 robust z-score": 0.801, "G2 cells, % of GMNN control": 8.6, "outcome": "inactive"}
{"target gene": "LOC643554 (ornithine aminotransferase pseudogene)", "reagent no.": 1, "G2 robust z-score": -0.0064, "G2 cells, % of GMNN control": 2.92, "outcome": "inactive"}
{"target gene": "LOC643554 (ornithine aminotransferase pseudogene)", "reagent no.": 2, "G2 robust z-score": -0.968, "G2 cells, % of GMNN control": -3.84, "outcome": "inactive"}
{"target gene": "LOC643554 (ornithine aminotransferase pseudogene)", "reagent no.": 3, "G2 robust z-score": 0.0716, "G2 cells, % of GMNN control": 3.47, "outcome": "inactive"}
